We go through two substances from publication PMC6050246.

Amino acid sequences for entries named in this document (tags omitted). Residues count along the entry.
UniProt Q01147: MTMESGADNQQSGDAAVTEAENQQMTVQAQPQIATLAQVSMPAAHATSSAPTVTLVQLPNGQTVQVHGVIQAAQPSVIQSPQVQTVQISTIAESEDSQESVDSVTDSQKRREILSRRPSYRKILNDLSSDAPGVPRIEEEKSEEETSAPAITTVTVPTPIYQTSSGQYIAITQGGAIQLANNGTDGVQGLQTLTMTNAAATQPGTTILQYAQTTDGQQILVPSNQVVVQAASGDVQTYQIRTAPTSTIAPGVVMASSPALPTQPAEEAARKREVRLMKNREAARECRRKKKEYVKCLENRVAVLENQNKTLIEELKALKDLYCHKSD
UniProt P41593, residues 27-591: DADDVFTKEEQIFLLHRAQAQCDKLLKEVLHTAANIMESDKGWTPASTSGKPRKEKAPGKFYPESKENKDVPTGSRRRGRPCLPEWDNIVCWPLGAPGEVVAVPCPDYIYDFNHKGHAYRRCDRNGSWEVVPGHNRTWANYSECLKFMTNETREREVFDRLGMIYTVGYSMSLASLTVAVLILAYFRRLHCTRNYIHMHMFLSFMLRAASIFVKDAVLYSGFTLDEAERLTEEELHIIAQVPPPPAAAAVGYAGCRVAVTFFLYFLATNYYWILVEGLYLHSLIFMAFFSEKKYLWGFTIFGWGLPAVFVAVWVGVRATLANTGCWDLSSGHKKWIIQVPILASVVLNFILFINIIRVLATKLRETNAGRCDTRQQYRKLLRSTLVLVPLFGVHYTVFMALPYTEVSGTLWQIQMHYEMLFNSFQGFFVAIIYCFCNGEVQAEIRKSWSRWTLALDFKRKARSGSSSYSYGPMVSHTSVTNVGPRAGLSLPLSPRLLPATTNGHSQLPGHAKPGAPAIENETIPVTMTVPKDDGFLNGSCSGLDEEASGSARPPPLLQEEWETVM

Test [1] addresses phosphorylated cAMP response element binding (CREB) protein (pCREB) (not stated (endogenous in NP cells; mouse and human NP cells were cultured)) (UniProt Q01147). Briefly: co-IP; nuclear and cytoplasmic extracts (NE-PER kit) of in vitro-cultured NP cells treated with PTH (1-34) or vehicle; IP with anti-pCREB and blot for PTH1R, or IP with anti-PTH1R and blot for pCREB; interaction reported in the cytoplasmic (acetylated tubulin) extract.

The target in test [2] is parathyroid hormone 1 receptor (PTH1R) (not stated (endogenous in NP cells; mouse and human NP cells were cultured)) (UniProt P41593). The test is described as above.

These are yes or no findings as the source states them, for the method shown. In cells and extracts the contact can be indirect. Some results given as binding are weak or reduced against the parent protein; the word gives no strength.

Regarding “parathyroid hormone 1 receptor (PTH1R) (from UniProt P41593 27-591)”, in test [1], the binding entry is on record as “binds”.
With “phosphorylated cAMP response element binding (CREB) protein (pCREB) (from UniProt Q01147 1-327)”, in test [2], the binding entry is “binds”.
